{"source": "paper PMC7806726", "about": "(Scientific Reports, 2021)", "experiment": "general procedure: Fmoc solid-phase peptide synthesis; Rink amide linker on aminomethyl PS resin (1% DVB, 100–200 mesh, 1.43 mmol/g); DIC/Oxyma", "conditions": "whole synthesis, 220 nm", "note": "Some peptides are written in HELM: one residue between dots, names in brackets for other building blocks, links after the first $.", "data": [{"substance": "PEPTIDE1{[5FAM].[PEG2].E.E.I.[Nle].R.R}|PEPTIDE2{[5FAM].[PEG2].E.E.I.[Nle].R.R}|PEPTIDE3{[5FAM].[PEG2].E.E.I.[Nle].R.R}|CHEM1{[TriScaffold]}$PEPTIDE1,CHEM1,8:R2-1:R1|PEPTIDE2,CHEM1,8:R2-1:R2|PEPTIDE3,CHEM1,8:R2-1:R3$$$V2.0", "values": [{"measurement": "final HPLC purity", "result": "> 99", "unit": "%"}]}]}
